Some entries share one result that the patent states for a list of compounds.
What was measured:
Type in all cases: in vivo
Myzus persicae = experiment: Test for control efficacy on Myzus persicae (foliar application, potted Chinese cabbage); details: 500 ppm, foliar application to potted Chinese cabbage, 6 days after application
Laodelphax striatellus = experiment: Insecticidal test on Laodelphax striatellus (rice seedling dip); details: 500 ppm, rice seedlings dipped 30 seconds, 3rd-instar larvae, 8 days after inoculation
Plutella xylostella = experiment: Insecticidal test on Plutella xylostella (Chinese cabbage seedlings with laid eggs, dip); details: 500 ppm, seedlings with laid eggs dipped about 30 seconds, 25° C., 6 days after dip treatment

CCOC(=S)N(CC)/N=C/c1cnc(-c2nc3cc(SC(F)(F)F)ccc3o2)c(S(=O)(=O)CC)c1 [Compound 2-308]
control efficacy (control rate), activity level (Myzus persicae): A (the control rate is 100%)
insecticidal efficacy (corrected mortality rate), activity level (Laodelphax striatellus): A (the corrected mortality rate is 100%)
insecticidal efficacy (corrected mortality rate), activity level (Plutella xylostella): A (the corrected mortality rate is 100%)

CCN(/N=C/c1cnc(-c2nc3cc(SC(F)(F)F)ccc3o2)c(S(=O)(=O)CC)c1)C(=S)N(C)C [Compound 2-346]
control efficacy (control rate), activity level (Myzus persicae): A (the control rate is 100%)
insecticidal efficacy (corrected mortality rate), activity level (Laodelphax striatellus): A (the corrected mortality rate is 100%)
insecticidal efficacy (corrected mortality rate), activity level (Plutella xylostella): A (the corrected mortality rate is 100%)

CCS(=O)(=O)c1ccc(/C=N/NC(C)=O)nc1-c1nc2cc(C(F)(F)F)cnc2n1C [Compound 3-116]
control efficacy (control rate), activity level (Myzus persicae): A (the control rate is 100%)
insecticidal efficacy (corrected mortality rate), activity level (Laodelphax striatellus): A (the corrected mortality rate is 100%)
insecticidal efficacy (corrected mortality rate), activity level (Plutella xylostella): A (the corrected mortality rate is 100%)

CCN(/N=C/c1ccc(S(=O)(=O)CC)c(-c2nc3cc(C(F)(F)F)cnc3n2C)n1)C(C)=O [Compound 3-118]
control efficacy (control rate), activity level (Myzus persicae): A (the control rate is 100%)
insecticidal efficacy (corrected mortality rate), activity level (Laodelphax striatellus): A (the corrected mortality rate is 100%)
insecticidal efficacy (corrected mortality rate), activity level (Plutella xylostella): A (the corrected mortality rate is 100%)

CCS(=O)(=O)c1ccc(/C=N/NC(=O)OC)nc1-c1nc2cc(C(F)(F)F)cnc2n1C [Compound 3-154]
control efficacy (control rate), activity level (Myzus persicae): A (the control rate is 100%)
insecticidal efficacy (corrected mortality rate), activity level (Laodelphax striatellus): A (the corrected mortality rate is 100%)
insecticidal efficacy (corrected mortality rate), activity level (Plutella xylostella): A (the corrected mortality rate is 100%)

CCOC(=S)N/N=C/c1ccc(S(=O)(=O)CC)c(-c2nc3cc(C(F)(F)F)cnc3n2C)n1 [Compound 3-306]
control efficacy (control rate), activity level (Myzus persicae): A (the control rate is 100%)
insecticidal efficacy (corrected mortality rate), activity level (Laodelphax striatellus): A (the corrected mortality rate is 100%)
insecticidal efficacy (corrected mortality rate), activity level (Plutella xylostella): A (the corrected mortality rate is 100%)

CCS(=O)(=O)c1ccc(/C=N/NC(=O)OC)nc1-c1nc2cc(OC(F)(F)F)cnc2o1 [Compound 4-611]
control efficacy (control rate), activity level (Myzus persicae): A (the control rate is 100%)
insecticidal efficacy (corrected mortality rate), activity level (Laodelphax striatellus): A (the corrected mortality rate is 100%)
insecticidal efficacy (corrected mortality rate), activity level (Plutella xylostella): A (the corrected mortality rate is 100%)
